Some of these results come from one statement about several compounds together. At least one compound was matched to its structure with a doubt left.
Assay: Stability of diacetylresveratryl thioctate in the formulation with odor absorber
Format: physicochemical
Settings: 0.6% odor absorber in Base (0.10% diacetylresveratryl thioctate), two months, listed as copper L-pyrrolidone carboxylate salt
Procedure: A diacetylresveratryl thioctate stability test was carried out for the odor absorbers retained in Example 3, according to the following protocol, for the purpose of confirming the compatibility between the solvent and the odor absorber.

Structure (SMILES): O=C1CC[C@@H](C(=O)[O-])N1.O=C1CC[C@@H](C(=O)[O-])N1.[Cu+2] [Copper L-pyrrolidone carboxylate salt]
- degree of diacetylresveratryl thioctate stabilization 45° C.: greater than or equal to 0.085

— patent publication US9192560B2, “Stable composition comprising an anti-ageing compound and a solvent” (CHANEL PARFUMS BEAUTE, priority 2012, dated 2015)
